Assay results taken from US9932381B2, “Exendin-4 derivatives as selective glucagon receptor agonists” (priority 2014, dated 2018).
At least one peptide structure holds a part that was inferred or is arguable (an end, a ring closure or a residue). Non-standard residues stand in square brackets, D forms with d. Residues, ends and D or L forms follow the SMILES beside them. Ala(4-thiazolyl) = N[C@@H](Cc1cscn1)C(=O)O; Phe(2-F) = N[C@@H](Cc1ccccc1F)C(=O)O

By UniProt entry, the sequences of proteins in these tests, tags left out. Residues count along the entry.
UniProt P47871, 26-477: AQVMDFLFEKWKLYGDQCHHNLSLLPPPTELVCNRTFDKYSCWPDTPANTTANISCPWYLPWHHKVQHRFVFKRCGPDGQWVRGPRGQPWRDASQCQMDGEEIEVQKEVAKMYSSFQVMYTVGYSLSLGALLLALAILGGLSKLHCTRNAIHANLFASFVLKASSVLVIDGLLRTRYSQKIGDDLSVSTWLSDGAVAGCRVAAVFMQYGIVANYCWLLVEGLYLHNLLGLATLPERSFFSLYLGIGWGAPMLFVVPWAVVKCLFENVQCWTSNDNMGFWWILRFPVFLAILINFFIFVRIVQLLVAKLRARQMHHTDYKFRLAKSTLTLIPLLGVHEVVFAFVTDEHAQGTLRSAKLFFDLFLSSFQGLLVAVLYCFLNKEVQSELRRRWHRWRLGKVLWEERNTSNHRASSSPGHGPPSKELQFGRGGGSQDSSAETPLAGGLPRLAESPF

Target: T1, human glucagon receptor (hGLUC R) (Homo sapiens, UniProt P47871)
T1 construct: expressed in transfected cells; host or cells: HEK-293
Assay: cAMP response (HTRF) of HEK-293 cells stably expressing human glucagon receptor
Format: cell-based
Details: Table 4
Description: cAMP content of cells was determined using a kit from Cisbio Corp. (cat. no. 62AM4PEC) based on HTRF (Homogenous Time Resolved Fluorescence). For preparation, cells were split into T175 culture flasks and grown overnight to near confluency in medium (DMEM/10% FBS). Medium was then removed and cells washed with PBS lacking calcium and magnesium, followed by proteinase treatment with accutase (Sigma-Aldrich cat. no. A6964). Detached cells were washed and resuspended in assay buffer (1×HBSS; 20 mM HEPES, 0.1% BSA, 2 mM IBMX) and cellular density determined. They were then diluted to 400000 cells/ml and 25 μl-aliquots dispensed into the wells of 96-well plates. For measurement, 25 μl of test compound in assay buffer was added to the wells, followed by incubation for 30 minutes at room temperature.

CC[C@H](C)[C@H](NC(=O)[C@H](Cc1ccccc1)NC(=O)[C@H](CC(=O)O)NC(=O)[C@H](CCC(N)=O)NC(=O)[C@H](C)NC(=O)[C@H](CCCNC(=N)N)NC(=O)[C@H](CCCNC(=N)N)NC(=O)[C@H](CO)NC(=O)[C@H](CCC(=O)O)NC(=O)[C@H](CC(C)C)NC(=O)[C@H](CCC(N)=O)NC(=O)[C@H](CCCCN)NC(=O)[C@H](CO)NC(=O)[C@H](Cc1ccccc1F)NC(=O)[C@H](CC(=O)O)NC(=O)[C@H](CO)NC(=O)[C@@H](NC(=O)[C@H](Cc1ccccc1)NC(=O)[C@@H](NC(=O)CNC(=O)[C@H](CCC(N)=O)NC(=O)[C@H](CO)NC(=O)[C@@H](N)Cc1cscn1)[C@@H](C)O)[C@@H](C)O)C(=O)N[C@@H](CCC(=O)O)C(=O)N[C@@H](Cc1c[nH]c2ccccc12)C(=O)N[C@@H](CC(C)C)C(=O)N[C@@H](CC(C)C)C(=O)N[C@@H](C)C(=O)N[C@H](C(=O)NCC(=O)N1CCC[C@H]1C(=O)N[C@@H](CCC(=O)O)C(=O)N[C@@H](CO)C(=O)NCC(=O)N[C@@H](C)C(=O)N1CCC[C@H]1C(=O)N1CCC[C@H]1C(=O)N1CCC[C@H]1C(=O)N[C@@H](CO)C(=O)O)[C@@H](C)O [SEQ ID NO 21, Tza-S-Q-G-T-F-T-S-D-2FPhe-SKQLESRRAQDFIEWLLATGPESGAPPPS-OH] (H-[Ala(4-thiazolyl)]SQGTFTSD[Phe(2-F)]SKQLESRRAQDFIEWLLATGPESGAPPPS-OH; N-terminus assumed)
EC50: 1.4 pM
